Measured values reported in paper PMC7550284, “The functional cooperation of 5-HT1A and mGlu4R in HEK-293 cell line” (Pharmacological Reports, 2020).
Results are given in words; binding and its absence hold for the method and conditions named. In cells and extracts the contact can be indirect. Some entries that bind do so weakly or less than the wild type.

Amino acid sequences for entries named in this document (tags omitted). A change or cut given only in a name is not applied to a line headed by its entry. Residues count along the entry.
UniProt Q68EF4, residues 33-912: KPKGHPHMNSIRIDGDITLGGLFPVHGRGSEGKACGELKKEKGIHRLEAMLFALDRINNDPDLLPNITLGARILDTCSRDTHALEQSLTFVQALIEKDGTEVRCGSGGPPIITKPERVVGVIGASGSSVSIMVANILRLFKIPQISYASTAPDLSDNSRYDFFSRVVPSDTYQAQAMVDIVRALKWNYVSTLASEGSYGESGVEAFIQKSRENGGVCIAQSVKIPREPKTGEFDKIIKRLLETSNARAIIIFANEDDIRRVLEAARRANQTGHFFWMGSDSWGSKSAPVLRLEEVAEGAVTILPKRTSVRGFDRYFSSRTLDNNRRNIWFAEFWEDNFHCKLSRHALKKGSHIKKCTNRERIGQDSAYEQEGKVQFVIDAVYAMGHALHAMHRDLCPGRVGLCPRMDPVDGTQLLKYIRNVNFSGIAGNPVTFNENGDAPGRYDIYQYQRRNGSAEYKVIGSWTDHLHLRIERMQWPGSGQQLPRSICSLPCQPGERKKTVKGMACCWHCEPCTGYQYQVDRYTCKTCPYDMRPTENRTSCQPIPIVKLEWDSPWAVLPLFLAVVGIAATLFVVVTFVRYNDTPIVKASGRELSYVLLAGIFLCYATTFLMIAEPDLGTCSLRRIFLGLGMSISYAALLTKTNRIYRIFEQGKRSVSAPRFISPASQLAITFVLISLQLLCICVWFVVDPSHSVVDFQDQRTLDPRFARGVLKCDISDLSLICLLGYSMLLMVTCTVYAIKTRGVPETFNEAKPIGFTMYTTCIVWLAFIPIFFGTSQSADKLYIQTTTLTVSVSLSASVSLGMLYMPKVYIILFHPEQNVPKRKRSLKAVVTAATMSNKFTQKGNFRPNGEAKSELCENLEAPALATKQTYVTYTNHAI
UniProt Q14833, residues 33-912: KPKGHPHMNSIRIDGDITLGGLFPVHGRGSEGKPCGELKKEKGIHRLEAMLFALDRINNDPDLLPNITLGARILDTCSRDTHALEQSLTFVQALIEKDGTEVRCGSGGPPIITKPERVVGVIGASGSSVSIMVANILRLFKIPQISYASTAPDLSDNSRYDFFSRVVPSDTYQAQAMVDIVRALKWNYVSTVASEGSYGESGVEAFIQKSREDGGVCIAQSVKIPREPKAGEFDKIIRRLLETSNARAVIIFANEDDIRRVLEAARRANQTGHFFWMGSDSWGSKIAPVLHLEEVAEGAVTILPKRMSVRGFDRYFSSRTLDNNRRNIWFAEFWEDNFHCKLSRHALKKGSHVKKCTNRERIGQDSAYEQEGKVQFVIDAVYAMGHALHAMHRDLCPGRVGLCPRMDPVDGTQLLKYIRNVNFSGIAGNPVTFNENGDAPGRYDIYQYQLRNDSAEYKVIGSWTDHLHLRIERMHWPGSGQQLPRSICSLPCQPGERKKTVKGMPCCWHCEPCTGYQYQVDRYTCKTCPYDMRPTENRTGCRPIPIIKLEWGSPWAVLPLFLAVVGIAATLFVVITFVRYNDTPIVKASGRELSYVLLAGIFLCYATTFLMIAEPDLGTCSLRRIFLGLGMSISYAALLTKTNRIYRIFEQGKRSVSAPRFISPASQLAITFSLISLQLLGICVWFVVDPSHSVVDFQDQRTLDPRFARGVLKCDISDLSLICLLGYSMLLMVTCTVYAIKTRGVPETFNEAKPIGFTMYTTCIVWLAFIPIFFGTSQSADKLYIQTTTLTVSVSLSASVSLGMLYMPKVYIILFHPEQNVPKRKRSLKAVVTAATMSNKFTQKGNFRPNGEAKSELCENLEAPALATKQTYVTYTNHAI
UniProt P08908: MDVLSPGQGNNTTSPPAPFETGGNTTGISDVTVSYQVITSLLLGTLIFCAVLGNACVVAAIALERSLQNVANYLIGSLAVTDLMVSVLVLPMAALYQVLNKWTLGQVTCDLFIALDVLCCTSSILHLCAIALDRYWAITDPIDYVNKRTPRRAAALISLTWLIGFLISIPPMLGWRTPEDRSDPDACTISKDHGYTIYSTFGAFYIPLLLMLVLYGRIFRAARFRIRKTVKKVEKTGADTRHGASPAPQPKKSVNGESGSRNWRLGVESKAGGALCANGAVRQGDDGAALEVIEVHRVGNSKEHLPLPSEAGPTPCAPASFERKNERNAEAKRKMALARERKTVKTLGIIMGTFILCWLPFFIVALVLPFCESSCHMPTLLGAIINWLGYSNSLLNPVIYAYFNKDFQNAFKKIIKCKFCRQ
UniProt Q64264: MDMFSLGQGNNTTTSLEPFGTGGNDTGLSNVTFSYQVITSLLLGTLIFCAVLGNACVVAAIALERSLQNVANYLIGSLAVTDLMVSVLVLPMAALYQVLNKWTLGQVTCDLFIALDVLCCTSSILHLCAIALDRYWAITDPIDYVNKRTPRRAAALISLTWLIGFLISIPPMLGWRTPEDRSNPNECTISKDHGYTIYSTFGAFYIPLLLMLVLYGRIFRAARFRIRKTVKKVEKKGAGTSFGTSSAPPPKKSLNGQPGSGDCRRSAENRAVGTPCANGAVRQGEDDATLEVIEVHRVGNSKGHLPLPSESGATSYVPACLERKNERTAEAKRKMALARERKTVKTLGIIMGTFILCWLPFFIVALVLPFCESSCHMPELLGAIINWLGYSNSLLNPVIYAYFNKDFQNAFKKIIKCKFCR

Experiments:
[1] = target: mGlu4 receptor of the mouse brain (mouse (endogenous in C57BL/6J brain)) (UniProt Q68EF4); experiment: proximity ligation; Duolink II in situ PLA on fixed 5 µm mouse brain sections (MEnt, CA1); rabbit anti-mGlu4 and goat anti-5-HT1A primary antibodies
[2] = target: human metabotropic glutamate receptor 4 (GRM4, variant 1) with the SNAP-tag inserted after the 28th amino acid (human) (UniProt Q14833); experiment: FRET or BRET; homogeneous time-resolved FRET on intact T-REx 293 cells expressing both receptors (+Tet); mGlu4 labelled with Snap-Tb (donor), 5-HT1A with 200 nM Halo-Alexa 488 (acceptor); read in Hanks-HEPES buffer; with or without 100 μM L-Glu or (R)-(+)-8-OH DPAT
[3] = target: human 5-HT1A receptor tagged with SNAP protein (human) (UniProt P08908); experiment: FRET or BRET; homogeneous time-resolved FRET on intact T-REx 293 cells expressing one SNAP-tagged receptor; labelled with 100 nM Snap-Tb (donor) and 150 nM Snap-Green (acceptor), 2 h at 37 °C; read in Hanks-HEPES buffer, 20,000 cells per well; controls: buffer, nonlabeled, single-labeled cells, 1:1 mix of separately labeled cells

5-HT1A receptor of the mouse brain (from UniProt Q64264 1-421)
binding [1]: binds

5-HT1A receptor tagged with HALO-tag (from UniProt P08908 1-422)
binding [2]: binds

human 5-HT1A receptor tagged with SNAP protein (from UniProt P08908 1-422)
binding [3]: binds
